Measured data: PubChem BioAssay AID743121 (NCATS, 2013)
In all, the deposit lists about 26,000 reagents; shown is a random part of them. Over the whole deposit, 167 (0.63%) are marked active. 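Calls are per gene from RSA p-values that are not deposited; an individual active-marked siRNA can sensitise only weakly.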 The numbers tell different reagents against one gene apart. Not all columns of the deposit are shown.

- Assay: 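Knock-downs that sensitise breast cancer cells to camptothecin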 (primary screen)
- Cell system: MDA-MB-231 cells, a human breast cancer line
- Reagent: single siRNA against human genes, 20 nM siRNA (0.8 pmol per well)
- Timing: 120 h (drug added 48 h after transfection, read 72 h later)
- Treatment: camptothecin 20 nM (about EC30) for 72 h; vehicle 0.1% DMSO in parallel plates
- Measurement: 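Cell viability by ATP luminescence (CellTiter-Glo) as % of non-targeting siRNA wells, and the log2 ratio of viability without drug over viability with camptothecin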
- Reading the numbers: log2 vehicle/camptothecin viability: higher = stronger sensitisation to camptothecin
- Active means: 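Each gene scored by redundant siRNA activity (RSA) over its individual siRNA ratios; a gene is called active at p < 0.001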

log2 vehicle/camptothecin viability, by target gene and reagent
MS4A6E (GeneID 245802): #1 -0.23 inactive; #2 -0.0422 inactive; #3 0.0361 inactive; #4 -0.579 inactive
GPR22 (GeneID 2845): #1 -0.703 inactive; #2 -0.0988 inactive; #3 0.185 inactive; #4 -0.0532 inactive
RPP38 (GeneID 10557): #1 -0.409 inactive; #2 -0.316 inactive; #3 -0.198 inactive; #4 -0.128 inactive
TMPRSS11E (GeneID 28983): #1 -0.194 inactive; #2 -0.31 inactive; #3 0.352 inactive
TLR4 (GeneID 7099): #1 0.541 inactive; #2 -0.123 inactive; #3 -0.118 inactive; #4 -0.0386 inactive
PSAP (GeneID 5660): #1 -0.325 inactive; #2 0.405 inactive; #3 0.579 inactive; #4 -0.397 inactive
LRRN2 (GeneID 10446): #1 -0.00583 inactive; #2 -0.427 inactive; #3 0.0738 inactive; #4 0.0222 inactive
MTAP (GeneID 4507): #1 -0.000271 inactive; #2 -0.177 inactive; #3 -0.264 inactive; #4 -0.173 inactive

A portion from the list above, for reference:
log2 vehicle/camptothecin viability, by target gene and reagent
TMPRSS11E (GeneID 28983): #3 0.352 inactive
TLR4 (GeneID 7099): #1 0.541 inactive; #2 -0.123 inactive; #3 -0.118 inactive; #4 -0.0386 inactive
PSAP (GeneID 5660): #1 -0.325 inactive; #2 0.405 inactive; #3 0.579 inactive; #4 -0.397 inactive
LRRN2 (GeneID 10446): #1 -0.00583 inactive

Further results follow:
log2 vehicle/camptothecin viability, by target gene and reagent
ASB7 (GeneID 140460): #1 0.191 inactive; #2 0.162 inactive; #3 -0.476 inactive; #4 0.0106 inactive
SCUBE1 (GeneID 80274): #1 0.244 inactive; #2 0.237 inactive; #3 0.0159 inactive
TPMT (GeneID 7172): #1 -0.337 inactive; #2 -0.328 inactive; #3 -0.347 inactive
RAD1 (GeneID 5810): #1 -0.132 inactive; #2 0.18 inactive; #3 -0.155 inactive; #4 -0.198 inactive
P2RX2 (GeneID 22953): #1 -0.632 inactive; #2 -0.241 inactive; #3 -0.197 inactive; #4 -0.0672 inactive
SLC25A47 (GeneID 283600): #1 -0.247 inactive; #2 -0.273 inactive; #3 0.0708 inactive; #4 -0.641 inactive
EEF1A2 (GeneID 1917): #1 -0.109 inactive; #2 0.224 inactive; #3 -0.504 inactive; #4 -0.165 inactive
PAQR6 (GeneID 79957): #1 -0.00769 inactive; #2 0.336 inactive; #3 -0.683 inactive; #4 -0.332 inactive
CD74 (GeneID 972): #1 0.122 inactive; #2 -0.175 inactive; #3 -0.254 inactive; #4 -0.368 inactive
SEZ6L (GeneID 23544): #1 0.101 inactive; #2 -0.156 inactive; #3 -0.21 inactive; #4 -0.449 inactive
MXD3 (GeneID 83463): #1 0.0122 inactive; #2 -0.669 inactive; #3 -0.0582 inactive; #4 0.691 inactive
MRPL3 (GeneID 11222): #1 -0.241 inactive; #2 -0.36 inactive; #3 -0.17 inactive; #4 0.109 inactive
CYP2C19 (GeneID 1557): #1 0.21 inactive; #2 -0.0178 inactive; #3 -0.153 inactive
KLK2 (GeneID 3817): #1 -0.32 inactive; #2 -0.329 inactive; #3 0.118 inactive; #4 -0.136 inactive
PPP3CC (GeneID 5533): #1 0.466 inactive; #2 0.312 inactive; #3 -0.293 inactive; #4 -0.0426 inactive
